In PMC5018195:
Results are given in words; binding and its absence hold for the method and conditions named. Binding seen in cells or lysates may run through a third protein. Some entries that bind do so weakly or less than the wild type.

Amino acid sequences for entries named in this document (tags omitted). A change or cut given only in a name is not applied to a line headed by its entry.
UniProt P63015: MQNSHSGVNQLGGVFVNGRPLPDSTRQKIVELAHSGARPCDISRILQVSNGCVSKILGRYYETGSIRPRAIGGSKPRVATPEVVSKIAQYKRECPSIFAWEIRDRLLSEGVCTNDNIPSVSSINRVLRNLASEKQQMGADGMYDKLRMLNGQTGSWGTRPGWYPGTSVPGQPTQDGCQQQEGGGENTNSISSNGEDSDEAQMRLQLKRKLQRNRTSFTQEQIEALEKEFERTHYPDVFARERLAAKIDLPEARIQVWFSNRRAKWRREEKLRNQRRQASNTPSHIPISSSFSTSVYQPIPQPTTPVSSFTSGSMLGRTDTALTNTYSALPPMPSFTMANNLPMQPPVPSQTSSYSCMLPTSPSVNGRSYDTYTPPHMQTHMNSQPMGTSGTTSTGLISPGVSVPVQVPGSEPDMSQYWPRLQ
UniProt Q91ZW3: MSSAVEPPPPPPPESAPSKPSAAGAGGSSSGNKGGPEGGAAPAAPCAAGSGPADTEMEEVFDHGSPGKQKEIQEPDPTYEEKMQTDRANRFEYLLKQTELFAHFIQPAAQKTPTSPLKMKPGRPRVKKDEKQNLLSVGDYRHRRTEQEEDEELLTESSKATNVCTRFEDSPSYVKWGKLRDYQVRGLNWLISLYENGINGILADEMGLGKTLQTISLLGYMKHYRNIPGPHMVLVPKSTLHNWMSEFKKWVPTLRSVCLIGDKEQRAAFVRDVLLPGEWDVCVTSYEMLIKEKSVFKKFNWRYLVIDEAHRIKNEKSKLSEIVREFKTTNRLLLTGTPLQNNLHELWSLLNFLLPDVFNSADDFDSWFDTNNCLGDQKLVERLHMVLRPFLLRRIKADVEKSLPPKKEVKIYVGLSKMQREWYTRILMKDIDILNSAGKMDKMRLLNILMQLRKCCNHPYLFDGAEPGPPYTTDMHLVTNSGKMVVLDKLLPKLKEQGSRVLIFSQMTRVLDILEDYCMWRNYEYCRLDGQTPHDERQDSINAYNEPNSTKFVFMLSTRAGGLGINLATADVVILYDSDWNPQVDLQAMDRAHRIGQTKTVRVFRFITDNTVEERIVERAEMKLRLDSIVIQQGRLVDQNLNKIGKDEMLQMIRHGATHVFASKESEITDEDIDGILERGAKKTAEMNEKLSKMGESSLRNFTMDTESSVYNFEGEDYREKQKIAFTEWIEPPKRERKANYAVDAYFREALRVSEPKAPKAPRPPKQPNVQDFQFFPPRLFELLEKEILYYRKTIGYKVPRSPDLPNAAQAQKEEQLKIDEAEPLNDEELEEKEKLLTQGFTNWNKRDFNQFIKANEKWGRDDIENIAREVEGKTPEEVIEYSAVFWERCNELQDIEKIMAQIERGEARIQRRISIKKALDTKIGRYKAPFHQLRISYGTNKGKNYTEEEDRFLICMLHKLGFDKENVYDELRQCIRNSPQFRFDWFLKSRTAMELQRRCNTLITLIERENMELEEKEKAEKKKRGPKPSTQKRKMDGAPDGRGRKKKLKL
UniProt Q08943: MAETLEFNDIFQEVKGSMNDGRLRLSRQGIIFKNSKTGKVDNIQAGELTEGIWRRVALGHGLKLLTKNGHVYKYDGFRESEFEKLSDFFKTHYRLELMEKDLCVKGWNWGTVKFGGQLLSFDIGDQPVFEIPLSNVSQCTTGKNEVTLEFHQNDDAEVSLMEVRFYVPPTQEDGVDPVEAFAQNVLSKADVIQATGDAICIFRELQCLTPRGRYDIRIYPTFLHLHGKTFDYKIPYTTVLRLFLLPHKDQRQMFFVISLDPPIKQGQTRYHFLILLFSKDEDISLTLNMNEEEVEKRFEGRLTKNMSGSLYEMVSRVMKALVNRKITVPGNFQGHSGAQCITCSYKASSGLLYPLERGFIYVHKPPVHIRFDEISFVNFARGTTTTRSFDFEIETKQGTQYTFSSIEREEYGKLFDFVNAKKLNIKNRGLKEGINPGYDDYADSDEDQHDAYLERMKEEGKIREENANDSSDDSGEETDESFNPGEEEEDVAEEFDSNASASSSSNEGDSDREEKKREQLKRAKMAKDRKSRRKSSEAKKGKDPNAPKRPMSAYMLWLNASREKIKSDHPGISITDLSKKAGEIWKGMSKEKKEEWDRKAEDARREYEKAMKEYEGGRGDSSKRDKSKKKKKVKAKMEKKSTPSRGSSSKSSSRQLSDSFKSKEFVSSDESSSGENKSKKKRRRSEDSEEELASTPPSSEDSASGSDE

Biological target: Pax6 (mouse (endogenous in αTN4)) (UniProt P63015)
Assay: co-IP; immunoprecipitation from αTN4 nuclear extract with Pax6 antibody; western blot for Ssrp, Spt16 or Snf2h; IgG control; Protein G Dynabeads, 4 °C, BC200 buffer

binding | Substance
binds | Snf2h (Smarca5) (from UniProt Q91ZW3 1-1051) (enzyme)
binds | histone chaperone complex FACT (Ssrp and Spt16) (from UniProt Q08943 1-708; Q920B9 1-1047)
